The record followed here is PMC11933671.

These are yes or no findings as the source states them, for the method shown. Binding seen in cells or lysates may run through a third protein. A yes stands for co-enrichment or nearness to the bait. Other partners may have been found.

For the experiment, the target named is SRPK1-GFP (serine/arginine-rich protein kinase with C-terminal GFP) (P. berghei). Briefly: affinity purification with mass spectrometry; GFP-Trap_A beads on lysates of male gametocytes 6 min post-activation, cross-linked with 1% formaldehyde before lysis; lysis buffer 10 mM Tris-HCl pH 7.5, 150 mM NaCl, 0.5 mM EDTA, 0.5% Nonidet P-40 Substitute; 2 h at 4°C; on-bead trypsin digest, LC-MS/MS; three biological replicates; hits absent from the WT-GFP control.

B1: Calcium-dependent kinase 4 (enzyme, UniProt P62345 1-528)
chain: MGQEMSTQSDMQNENQKGNKRNLKGSQGKNGLKERSTSISKEIVKNSFNNSKLRPGMFIQNSNVVFNEQYKGIKILGKGSFGEVILSKDKHTGHEYAIKVISKKHVKRKTDKQSLLREVELLKMLDHINIMKLYEFFEDNNYYYLVSDVYSGGELFDEIISRKRFYEVDAARIIKQVLSGITYMHKNNVVHRDLKPENILLETKNKEDMIIKIIDFGLSTHFEYSKKMKDKIGTAYYIAPDVLHGTYDEKCDIWSCGVILYILLSGCPPFNGSNEYDILKKVETGKYTFDLPQFKKISDKAKDLIKKMLMYTSAVRISARDALEHEWIRLMTSKDNVNIDIPSLELSITNIKQFQSTQKLAQAALLYMGSKLTTIDETKELTKIFKKMDKNGDGQLDRNELIIGYKELLKLKGDDTTDLDNAAIEVEVDQILSSIDLDQNGYIEYSEFLTVAIDRKLLLSTERLEKAFKLFDKDGSGKISANELAQLFGLGDVSSDCWKTVLKEVDQNNDGEIDFKEFRDMLIKLCNY
As to B1, the binding result was “binds”.
